One molecule from publication PMC11743138, “Structural basis for the interaction between the Drosophila RTK Sevenless (dROS1) and the GPCR BOSS” (Nature Communications, 2025) can be followed below.

Results are given in words; binding and its absence hold for the method and conditions named. Sequences can lack the tags named with a protein.

This experiment has as its target dROS1SEQ (dROS1 extracellular construct with FSI 876-878 changed to SEQ) (D. melanogaster). Put plainly: SPR; BIAcore T200; dROS1 constructs covalently coupled (NHS/EDC) to a CM5 chip, BOSS ECR proteins flowed over at 10 µL/min for 180 s; 20 mM HEPES pH 7.5, 100 mM NaCl; plateau RU against BOSS concentration fitted to a single-site specific binding model; both purified.

B1: BOSS (Bride Of Sevenless) extracellular region, His tag cleaved (domain or fragment, D. melanogaster, UniProt P22815 102-510, looked up)
chain: GTTASLVPEICLNGLQLTVNSADEGTVIRKQEEFVKILEGDVVLSVLTKDPDSALFVINRVNQANLIMADFEIGIRAISIDNASLAENLLIQEVQFLQQCTTYSMGIFVDWELYKQLESVIKDLEYNIWPIPGTRAHLFPKVAHLLHQMPWGEKIASVEIATETLEMYNEFMEAARQEHMCLMHFKSDDNVYIMFGNKLASHFKENGTLFSVPTDRTDDEFLADLPNRAFVLMENEIDLSTAVELDATPTALDEILIGKSVLPSRVLSFAGSIIDLMNWLRGSLSKHCKRGEEHDLYVLESCFNFLNFIEDWRTSEYRQAHDTAEILSLLLMRKLGTAMNFQMYQKKVLTLDKITGESRTELREIASQNFVTNVTTYYHYNRDNHTSLELKTKFGQVFNCQYSAGDNRR
notes: Bride of sevenless (BOSS), D. melanogaster, extracellular region, residues 102-510; also called BOSS ECR; BOSSWT; source: Trichoplusia ni (Hi5) cells, baculovirus, purified from the medium (Ni resin, SEC; Factor Xa cleavage, Ni flow-through, SEC); not shown: His8, N-terminal, cleaved
Take B1: the binding entry is on record as “no binding”.
